# In PubChem BioAssay (Tox21):
# Sequences of proteins named here, by UniProt entry; tags and fusion partners are left off.
# UniProt P14416, whole entry, looked up: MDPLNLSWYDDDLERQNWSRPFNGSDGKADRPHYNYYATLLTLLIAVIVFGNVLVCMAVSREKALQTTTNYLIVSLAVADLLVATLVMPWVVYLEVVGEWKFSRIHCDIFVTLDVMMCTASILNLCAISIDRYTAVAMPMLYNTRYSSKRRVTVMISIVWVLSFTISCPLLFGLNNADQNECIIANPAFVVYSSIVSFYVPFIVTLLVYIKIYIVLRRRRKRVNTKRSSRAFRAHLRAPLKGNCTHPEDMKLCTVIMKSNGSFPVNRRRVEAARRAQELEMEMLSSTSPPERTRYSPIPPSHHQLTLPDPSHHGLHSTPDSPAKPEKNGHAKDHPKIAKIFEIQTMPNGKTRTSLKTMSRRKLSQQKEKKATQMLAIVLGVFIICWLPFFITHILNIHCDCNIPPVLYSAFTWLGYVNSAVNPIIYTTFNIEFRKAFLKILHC
# Where “and” joins values, the source holds several entries; their conditions need not be identical. Equal entries are not always repeated. Inconclusive means that the source gave no clear call. Such entries were picked first, then a sample of the others. For some assays here: Where the call is inconclusive, the potency comes from a doubtful curve fit. Calls of active or inactive are those of the source. Unless noted, the call rests on the fitted dose curve.
# How the values were obtained:
# [1] = Nuclear factor erythroid 2-related factor 2/antioxidant responsive element (Nrf2/ARE) small molecule agonists: luciferase reporter gene qHTS assay in human keratinocytes (AID 1919969); details: KeratinoSens HaCaT ARE-luciferase, luminescence, 24 h; activity, positive = activation: at 92.4 µM (top of the series); further: nearly all actives have a fitted effect of over 35% in size; further: potency means the concentration at half of the fitted maximal effect
# [2] = cAMP Responsive Elements (CRE) small molecule antagonists, cell-based qHTS assay (AID 1963591; active means well fitted inhibition curve with a large enough effect in the signal ratio in the repeat runs, not every such curve was filed as active; inconclusive means weak or mixed curves, or effect the other way; the % refers to the signal ratio; further: potency means the concentration at half of the fitted maximal effect); details: CRE-bla HEK293T, beta-lactamase FRET ratio; activity change, negative = inhibition: at 92.4 µM (top of the series) unless noted
# Summary of the method: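 Cells (CRE-bla HEK 293T, DMEM with 10% dialyzed FBS and 25 mM HEPES) are seeded and incubated 18 h. Compounds are added with NKH477 agonist at 0.25 uM final for 3 h, then FRET substrate for 2 h.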
# [3] = biological target: Beta-2 adrenergic receptor (Homo sapiens) (UniProt P07550); assay: Adrenergic beta2 receptor (ADRB2) small molecule antagonists, cell-based qHTS assay (AID 1963592); details: CHO-ADRB2 cells, isoproterenol-stimulated cAMP HTRF ratio, 0.5 h; activity change, negative = inhibition: at 92.4 µM (top of the series) unless noted; further: nearly all actives have a fitted effect of over 50% in size; further: potency means the concentration at half of the fitted maximal effect
# Summary of the method: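 Assay format: CHO-ADRB2 cells, 18-20hr seeding at 37C/5% CO2, then compound plus 1nM isoproterenol agonist mix for 0.5hr RT. Homogeneous time-resolved fluorescence cAMP detection after 1hr, expressed as 665/615 nm ratio.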
# [4] = biological target: Beta-2 adrenergic receptor (Homo sapiens) (UniProt P07550); assay: Adrenergic beta2 receptor (ADRB2) small molecule agonists, cell-based qHTS assay (AID 1963593); details: CHO-ADRB2 cells, cAMP HTRF, 30 min; further: potency means the concentration at half of the fitted maximal effect;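 on activation: CHO cells stably overexpressing human ADRB2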
# Summary of the method: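 CHO cells stably over-expressing ADRB2 were plated overnight at 37C, then dosed with compounds plus a stimulation mix containing 100uM IBMX and 25uM Ro-20-1724 for 0.5hr at room temperature. cAMP was measured by HTRF competition, 1hr.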
# [5] = cAMP Responsive Elements (CRE) small molecule agonists, cell-based qHTS assay (AID 1963590); details: CRE-bla HEK293T, beta-lactamase FRET ratio, 3 h; activation: at 92.4 µM (top of the series) unless noted; further: potency means the concentration at half of the fitted maximal effect
# Summary of the method: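 Cells carrying a CRE-driven beta-lactamase reporter (HEK 293T) are seeded, incubated overnight (18 h), and treated with test compounds for 3 h at 37 C; reporter activity is then detected with a FRET substrate after 2 h at room temperature.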
# [6] = biological target: D(2) dopamine receptor (Homo sapiens) (UniProt P14416); assay: Dopamine D2 receptor (DRD2) small molecule agonists, cell-based qHTS assay (AID 1963594); details: HEK293-DRD2 cAMP HTRF, agonist mode, 30 min; activation: at 92.4 µM (top of the series) unless noted; further: nearly all actives have a fitted effect of over 35% in size
# Summary of the method: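 HEK293 cells stably expressing DRD2 were cultured 24 h at 37 C, then given Ro20-1724 (0.1 mM final) and compounds for 10 min at room temperature. NKH477 (200nM) was then added for 30 min. cAMP was read by HTRF.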
# [7] = biological target: D(2) dopamine receptor (Homo sapiens) (UniProt P14416); assay: Dopamine D2 receptor (DRD2) small molecule antagonists, cell-based qHTS assay (AID 1963595; active means well fitted inhibition curve with a large enough effect in the signal ratio in the repeat runs, with a control signal flat; inconclusive means weak or mixed curves, or effect the other way; the % refers to the signal ratio); details: HEK293-DRD2 cAMP HTRF antagonist mode; activity change, negative = inhibition: at 92.4 µM (top of the series) unless noted
# Summary of the method: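 HEK293 cells stably expressing DRD2, preincubated with 0.1 mM Ro20-1724 and compounds 10 min, were stimulated with 200 nM NKH477 plus 12 nM quinpirole for 30 min at room temperature; cAMP measured by HTRF (665/620 nm).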
# [8] = activation: at 92.4 µM (top of the series) unless noted
# On the % scale 0 is the no-effect control and ±100 the full control effect.
smiles,measurement,setting,value
Cc1c(N)cccc1N,Potency,[1],inconclusive: 27.9 µM [activator]
same,Potency,[2],inactive
same,Potency,[3],"inconclusive: 27.9 µM [falling, partial curve]"
same,activation,[4]; [8],inconclusive: -0.17%
CC(C)COC(=O)/C=C/c1ccccc1,Potency,[1],"inconclusive: 34.4 µM [activator, partial curve]"
same,Potency,[2],"inconclusive: 14.3 µM [inhibitor, single point]"
CCCCC(=O)OCC(=O)[C@H]1[C@H](C)C[C@H]2[C@@H]3C[C@H](F)C4=CC(=O)C=C[C@]4(C)[C@@]3(F)[C@@H](O)C[C@@]21C,Potency,[1],inactive
same,Potency,[5],"inconclusive: 26.6 µM [rising, single point]"
same,Potency,[4]; [8],inactive
CC1(C)C(=O)N(Cl)C(=O)N1Cl,Potency,[1],inactive
same,Potency,[5],inactive
same,Potency,[4]; [8],"inactive and inconclusive: 6.86 µM [inhibitor, single point]"
same,Potency,[6],inactive
NC1CCCCC1,Potency,[1],inactive
same,Potency,[5],inconclusive: 13.8 µM [activator]
same,Potency,[4]; [8],"inconclusive: 969 nM [inhibitor, partial curve, poor fit]"
same,activation,[4]; [8],inconclusive: 0.916% and inconclusive: 10.4%
same,activation,[4]; at 92.4 µM (top of the series),inactive: 1.41%
same,activation,[6],inconclusive: 4.23%
O=C1c2ccccc2C(=O)c2c(O)ccc(O)c21,Potency,[1],"inconclusive: 24.3 µM [activator, partial curve]"
same,Potency,[5],"inconclusive: 8.63 µM [rising, full curve]"
same,Potency,[4]; [8],inactive
CC(=O)c1c(C)c([N+](=O)[O-])c(C(C)(C)C)c([N+](=O)[O-])c1C,Potency,[1],"inconclusive: 68.6 µM [activator, partial curve, poor fit]"
same,Potency,[5],"inconclusive: 61.1 µM [activator, partial curve, poor fit]"
same,Potency,[4]; [8],inactive
Cc1ccc(-c2ccccc2C#N)cc1,Potency,[1],inactive
same,Potency,[5],inactive
same,Potency,[3],inactive
same,Potency,[4]; [8],inactive
same,activation,[6],inconclusive: -8.37% [at 42.5 µM]
CC(C)(c1ccccc1)c1ccccc1,Potency,[1],inconclusive: 56.8 µM [activator]
same,Potency,[5],inactive
same,Potency,[4]; [8],inactive
same,"activity change, negative = inhibition",[7],inconclusive: -18.6%
O=c1[nH]c(=O)n([C@H]2C[C@H](O)[C@@H](CO)O2)cc1C(F)(F)F,Potency,[1],inconclusive: 29.8 µM [activator]
same,Potency,[5],"inconclusive: 13.3 µM [rising, partial curve, poor fit]"
same,Potency,[6],inactive
CC(C)(CO)[N+](=O)[O-],Potency,[1],inactive
same,Potency,[5],inactive
same,Potency,[4]; [8],inactive
CC(CCC(=O)O)C(=O)O (centres undefined),Potency,[1],inactive
same,Potency,[5],inactive
same,Potency,[4]; [8],inactive
CO[C@H]1C=CO[C@@]2(C)Oc3c(C)c(O)c4c(O)c(c(/C=N/N5CCN(C)CC5)c(O)c4c3C2=O)NC(=O)/C(C)=C\C=C[C@H](C)[C@H](O)[C@@H](C)[C@@H](O)[C@@H](C)[C@H](OC(C)=O)[C@@H]1C,Potency,[1],"inconclusive: 24.6 µM [activator, partial curve]"
same,Potency,[2],"inconclusive: 39 µM [fluorescent, partial curve] and inconclusive: 29.8 µM [fluorescent, partial curve]"
same,"activity change, negative = inhibition",[2],inconclusive: -43.8%
same,Potency,[4]; [8],"inconclusive: 61.4 µM [cytotoxic, partial curve, poor fit] and inconclusive: 29.8 µM [cytotoxic, partial curve, poor fit]"
same,activation,[4]; [8],inconclusive: -43% [at 42.5 µM]
O=[N+]([O-])c1nccn1CO[C@@H](CO)[C@H](O)CO,Potency,[1],inactive
same,Potency,[5],inactive
same,Potency,[4]; [8],inactive
C[C@@]12CCC[C@H]1[C@@H]1CC[C@H]3C[C@@H](O)CC[C@]3(C)[C@H]1CC2,Potency,[1],"inconclusive: 33.5 µM [activator, single point]"
same,Potency,[2],inactive
same,Potency,[3],inconclusive: 0.0007 µM
same,Potency,[4]; [8],inactive
O=Cc1ccc(O)c(O)c1O,Potency,[1],"inconclusive: 33.5 µM [activator, single point]"
same,Potency,[5],"inconclusive: 0.0017 µM [inhibitor, full curve, poor fit]"
same,activation,[4]; [8],inconclusive: 5.94% [at 42.5 µM]
Cc1ccc2c(Br)cc(Br)c(O)c2n1,Potency,[1],"inconclusive: 10.6 µM [activator, partial curve, poor fit]"
same,Potency,[2],"inconclusive: 11.9 µM [inhibitor, partial curve]"
same,activation,[4]; [8],inconclusive: 45.7% [at 42.5 µM]
CCCCOC(=O)CO,Potency,[1],"inconclusive: 68.6 µM [activator, single point]"
same,Potency,[5],inactive
same,Potency,[4]; [8],inactive
same,Potency,[7],inactive
C[C@](N)(Cc1ccc(O)cc1)C(=O)O,Potency,[1],"inconclusive: 1.5 µM [activator, partial curve, poor fit]"
same,activation,[5],inactive: -0.0581% [at 8.39 µM]
same,activation,[4]; [8],inactive: 23.8% [at 8.39 µM]
COC1=CC(=O)C[C@@H](C)[C@]12Oc1c(Cl)c(OC)cc(OC)c1C2=O,Potency,[1],"inconclusive: 68 µM [activator, single point]"
same,Potency,[2],"inconclusive: 2.85 µM [inhibitor, full curve, poor fit]"
same,"activity change, negative = inhibition",[2],inconclusive: -23.3% [at 42.4 µM]
same,activation,[4]; [8],inconclusive: -20.1%
same,activation,[4]; at 42.5 µM (top of the series),inactive: -5.51%
same,activation,[4]; at 92.4 µM (top of the series),inactive: -0.0941%

# An excerpt of these results, bar-delimited:
smiles | measurement | setting | value
CCCCOC(=O)CO | Potency | [1] | inconclusive: 68.6 µM [activator, single point]
same | Potency | [5] | inactive
same | Potency | [4]; [8] | inactive
